# Measured data: PubChem BioAssay AID1224828 (NIAID, 2016)
# Purpose: 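Knock-downs that increase or decrease LPS-induced p65 nuclear translocation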 (primary screen)
# System: mouse RAW264.7 G9 macrophage reporter cells (GFP-p65, Tnf promoter-mCherry)
# Reagent: siRNA pool against mouse genes, 100 nM
# Duration: 2 days siRNA transfection, then 40 min LPS before fixation
# Conditions: LPS (Salmonella minnesota R595) at 10 ng/ml
# Read-out: 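Imaged p65 nuclear translocation ratio, normalised to the plate median, converted to robust z-scores and averaged across two replicates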
# Direction: p65 translocation robust z-score: higher = more nuclear NF-kappaB p65 after LPS than the plate median; nuclear/cytoplasmic p65 ratio: higher = more nuclear NF-kappaB p65
# Call rule: 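Called active when z exceeds 3.3 or falls under -1.56 (median of Tlr4 controls), giving activity score of at least 50; no calls for control wells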
# Meaning of the calls: active = hit (p65 shift raised or lowered); inactive = no clear change
# Shown is a random part of about 17,000 deposited reagents. 762 of them (4.5%) were called active. 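Active calls include both raised and lowered p65 entry, mostly lowered; wells with fewer than 50 cells lack a z-score.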 The raw values are shown without normalisation.
gene,PubChem SID,p65 translocation robust z-score,"nuclear/cytoplasmic p65 ratio, rep 1","nuclear/cytoplasmic p65 ratio, rep 2",low cell count flag,Call
Tssk6 (testis-specific serine kinase 6),SID315475883,0.27,1.68,1.46,enough cells to score,inactive
Slc35e1,SID315480911,-0.09,1.29,1.51,enough cells to score,inactive
Rpa3 (replication protein A3),SID315473470,-0.01,1.31,1.31,enough cells to score,inactive
Gm4836 (predicted gene 4836),SID315470062,-0.91,1.23,1.2,enough cells to score,inactive
Utp6 (UTP6 small subunit processome component),SID315478062,-0.6,1.2,1.19,enough cells to score,inactive
Dlx2 (distal-less homeobox 2),SID315466337,-0.22,1.47,1.33,enough cells to score,inactive
Neurl1a (neuralized E3 ubiquitin protein ligase 1A),SID315468135,-1.09,1.2,1.21,enough cells to score,inactive
Asic2 (acid-sensing ion channel 2),SID315465243,-0.73,1.52,1.55,enough cells to score,inactive
"Tnfrsf12a (tumor necrosis factor receptor superfamily, member 12a)",SID315470566,-0.2,1.46,1.52,enough cells to score,inactive
S100a6 (S100 calcium binding protein A6 (calcyclin)),SID315469082,-1.15,1.36,1.35,enough cells to score,inactive
Xlr4b (X-linked lymphocyte-regulated 4B),SID315470535,,1.15,1.19,fewer than 50 cells per well; well left out of scoring,inactive
Rabgap1l (RAB GTPase activating protein 1-like),SID315470699,-0.7,1.48,1.54,enough cells to score,inactive
"Tmprss2 (transmembrane protease, serine 2)",SID315470809,,1.16,1.1,fewer than 50 cells per well; well left out of scoring,inactive
"Vmn2r26 (vomeronasal 2, receptor 26)",SID315471610,,1.11,0.99,fewer than 50 cells per well; well left out of scoring,inactive
Mtx2 (metaxin 2),SID315471055,0.38,1.85,1.65,enough cells to score,inactive
Tdrd12 (tudor domain containing 12),SID315474403,,1.27,1.09,fewer than 50 cells per well; well left out of scoring,inactive
Sh3gl2 (SH3-domain GRB2-like 2),SID315469214,0.96,1.69,1.69,enough cells to score,inactive
"Atp6v1b2 (ATPase, H+ transporting, lysosomal V1 subunit B2)",SID315465562,-1.65,1.29,1.35,enough cells to score,active
A930006J02Rik (retired record),SID315475511,-0.06,1.42,1.46,enough cells to score,inactive
Icam2 (intercellular adhesion molecule 2),SID315467362,2.08,1.85,1.51,enough cells to score,inactive
Ipo13 (importin 13),SID315478805,-0.9,1.49,1.25,enough cells to score,inactive
5930422O12Rik (RIKEN cDNA 5930422O12 gene),SID315481149,-0.01,1.36,1.5,enough cells to score,inactive
Tradd (TNFRSF1A-associated via death domain),SID315474262,0.83,1.58,1.66,enough cells to score,inactive
Neu4 (sialidase 4),SID315479552,-0.22,1.77,1.54,enough cells to score,inactive
Numa1 (nuclear mitotic apparatus protein 1),SID315476295,0.48,1.66,1.71,enough cells to score,inactive
Rac2 (Rac family small GTPase 2),SID315468868,0.78,1.67,1.59,enough cells to score,inactive
"Scgb1b27 (secretoglobin, family 1B, member 27)",SID315465237,-0.75,1.52,1.54,enough cells to score,inactive
"Gstt2 (glutathione S-transferase, theta 2)",SID315467067,-0.96,1.18,1.37,enough cells to score,inactive
Tmbim7 (transmembrane BAX inhibitor motif containing 7),SID315475067,,1.08,1.39,fewer than 50 cells per well; well left out of scoring,inactive
Lrtm1 (leucine-rich repeats and transmembrane domains 1),SID315481095,,1.2,1.42,fewer than 50 cells per well; well left out of scoring,inactive
Cables1 (CDK5 and Abl enzyme substrate 1),SID315472047,,1.21,1.4,fewer than 50 cells per well; well left out of scoring,inactive
Vmn1r78 (vomeronasal 1 receptor 78),SID315477318,,1.17,1.15,fewer than 50 cells per well; well left out of scoring,inactive
Unc13a (unc-13 homolog A),SID315477662,1.94,1.86,2.13,enough cells to score,inactive
Or5p64 (olfactory receptor family 5 subfamily P member 64),SID315480377,,1.37,1.27,fewer than 50 cells per well; well left out of scoring,inactive
Recql (RecQ protein-like),SID315468934,-0.15,1.52,1.47,enough cells to score,inactive
Ankfn1 (ankyrin-repeat and fibronectin type III domain containing 1),SID315477876,,0.97,1.21,fewer than 50 cells per well; well left out of scoring,inactive
Oog1 (oogenesin 1),SID315477434,0.55,1.55,1.27,enough cells to score,inactive
Cdk9 (cyclin dependent kinase 9),SID315476658,-0.76,1.52,1.33,enough cells to score,inactive
Nup37 (nucleoporin 37),SID315473885,-0.55,1.62,1.46,enough cells to score,inactive
Mc1r (melanocortin 1 receptor),SID315467853,0.79,1.68,1.64,enough cells to score,inactive
